Test results: paper PMC3878827, “Synthesis and biological characterisation of ^18F-SIG343 and ^18F-SIG353, novel and high selectivity σ2 radiotracers, for tumour imaging properties” (EJNMMI Research, 2013)

Experiment: Metabolite studies (radio-TLC and radio-HPLC) in A375 tumour-bearing mice
Type: in vivo
Procedure: The amount of intact ^18F-SIG343 and ^18F-SIG353 in the plasma, urine, tumour and brain cortex was quantified by thin layer chromatography (TLC) and radio-HPLC analysis. Mice were injected with 20 MBq of the radiotracer in 100 μL of saline. Mice were sacrificed 15, 60 and 120 min post injection of radiotracer. Whole organ samples of brain cortex and tumour samples (10 to 60 mg, minced) were added to unlabelled SIG343 or SIG353 (5 μL; 1 mg/mL), KF (5 μL; 1 mg/mL), MeCN (0.3 mL) and water (0.2 mL). Samples were exposed to an ultrasonic probe (Ultrasonic processor, Misonix Inc., Farmingdale, NY, USA) for 2 min before being centrifuged (5,000 rpm, 5 min). Plasma (50 μL) or urine (10 μL) samples were added to unlabelled SIG343 or SIG353, KF and 0.5 mL MeCN. Plasma samples were centrifuged (Heraeus Biofuge PrimoR, Thermo Fisher Scientific, Hudson, NH, USA; 5,000 rpm, 5 min), and the supernatant was removed and the radioactivity of the precipitated pellets was measured using a gamma counter to determine the extraction efficiency. If necessary, multiple extractions were performed to ensure maximum recovery of the radioactivity. An appropriate amount of the supernatant, based on the activity level (cpm), was collected (approximately 100 μL), diluted with water (up to 1.5 mL) for HPLC analysis or evaporated to dryness under vacuum for TLC analysis.
The TLC sample was reconstituted in methanol (25 to 50 μL) and mixed before being applied to the concentrating zone of the silica TLC plate. In a separate lane, the corresponding ^18F-labelled and ^19F-standard was also spotted. The TLC solvent systems of EtOAc/MeOH (70:30) were utilised for ^18F-SIG343 (rf 0.50) and ^18F-SIG353 (rf 0.55). The UV of the standard was identified using a UV lamp, while the movement and integration of the radioactive spots were visualised and measured using a phosphorimager (BAS 2500 Phosphorimager, Fujifilm, Tokyo, Japan) with Fujifilm Multigage 3.0 software. The intact radiotracer was identified as the radioactive spot containing the identical rf value to the corresponding ^19F-standard seen under the UV lamp. The integration of the active spot in relation to all the activity in the TLC lane gave the percentage of intact radiotracer.
Radio-HPLC analysis was performed following the method of Hilton et al.. A pre-column (Waters Oasis HLB, 25 μm, 20 × 3.9 mm) and a reversed phase HPLC column (Phenomenex Bondclone C18, 10 μm, 250 × 4.6 mm or Phenomenex Synergi Max-RP 80A C18, 4 μm, 250 × 4.6 mm) in series, with a switching valve between columns was utilised. The pre-column was washed with 1% acetonitrile in water for 3 min at 1.5 mL/min and then the solvent direction was switched to include the HPLC column. Both columns in series were then eluted over 10 min. The radioactivity peak corresponding to the authentic radiotracer was compared to the total activity registered in the radiochromatogram to give the fraction of unchanged radiotracer in the sample.

Compound | Sample recovery (recovery of the radioactivity), Cortex (15 min post injection) | Sample recovery (recovery of the radioactivity), Plasma (15 min post injection) | Sample recovery (recovery of the radioactivity), Tumour (15 min post injection) | Sample recovery (recovery of the radioactivity), Cortex (60 min post injection) | Sample recovery (recovery of the radioactivity), Plasma (60 min post injection) | Sample recovery (recovery of the radioactivity), Tumour (60 min post injection) | Sample recovery (recovery of the radioactivity), Plasma (120 min post injection) | Sample recovery (recovery of the radioactivity), Tumour (120 min post injection) | Sample recovery (recovery of the radioactivity), Cortex (120 min post injection)
COc1cc2c(cc1OC)CN(CCCCCN1C(=O)c3ccc([18F])cc3C1=O)CC2 [^18F-SIG353] | 91% | 92 ± 6.8% | 86% | 93% | 88 ± 10.7% | 90% | 94 ± 5.3% | 81% | 
COc1cc2c(cc1OC)CN(CCCCN1C(=O)c3ccc([18F])cc3C1=O)CC2 [^18F-SIG343] | 92% | 89 ± 14.4% | 86% | 88% | 86 ± 16.4% | 90% | 91 ± 9.0% | 86% | 90%
